# Among all 330,000 compounds or so, about 7,700 (2.3%) were called active. Inconclusive means that the source gave no clear call. Such entries were picked first, then a sample of the others. The call rests on the fitted dose curve; in most records, active means well fitted inhibition curve with a large enough effect; inconclusive means small, poorly fitted or top-dose-only effect, or effect the other way; inactive means flat fitted curve, though single readings scatter. Where the call is inconclusive, the potency comes from a doubtful curve fit.
# Experiment: qHTS screen for small molecules that inhibit ELG1-dependent DNA repair in human embryonic kidney (HEK293T) cells expressing luciferase-tagged ELG1; further: nearly all actives have a fitted effect of over 55% in size
# Conditions: HEK293T ELG1-luciferase reporter, luminescence, 16 h, DNA damage induced by 5-fluorouridine; series mostly up to 46.1 µM
# Procedure, shortened: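 Cells (2,000 per well) received 5-fluorouridine plus test compound or DMSO and were incubated 16 hr at 37 °C, 5% CO2. Luciferase activity was read by luminescence 30 min after ONE-Glo addition; signal suppression marked inhibition of damage-induced ELG1 function.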
# Potency means the concentration at half of the fitted maximal effect.
row,Compound,Potency
1,CC(C)(C)c1ccc(S(=O)(=O)N2CCN(Cc3cc4c(cc3O)OCO4)CC2)cc1,inactive
2,CCNS(=O)(=O)c1ccc(CCC(=O)N2CCN(Cc3ccccc3)CC2)cc1,inactive
3,O=C(C[n+]1cc(Br)cc2ccccc21)c1ccc(Br)cc1,inactive
4,COc1ccc(-c2nn(-c3ccccc3C)cc2CNC(C)c2cn(C)nc2C)cc1F (centres undefined),"inconclusive: 29.1 µM [inhibitor, single point]"
5,CCOc1cc(Br)c(CN2C(=O)NC3(CCCCCC3)C2=O)cc1OCC,inactive
6,COc1ccc(-c2cc(C(F)(F)F)n3ncc(C(=O)NCC4CCCO4)c3n2)cc1 (centres undefined),"inconclusive: 2.31 µM [inhibitor, full curve, poor fit]"
7,Cc1c(C(=O)NC2=NCCS2)oc2ccccc12,"inconclusive: 1.64 µM [activator, full curve]"
8,CC(C(=O)Nc1ccc(S(=O)(=O)N2CCCC2)cc1)N1CCCC(C(N)=O)C1 (centres undefined),inactive
9,CC(O)C(NS(=O)(=O)c1ccc(Cl)cc1)C(=O)OCC(=O)N1CCN(c2ccccc2)CC1 (centres undefined),"inconclusive: 20.6 µM [inhibitor, single point]"
10,Fc1ccc(CN2CCCCCCC2)cc1F,"inconclusive: 1.16 µM [inhibitor, single point]"
11,CC1CCc2c(sc3ncn(Cc4ccc(C(=O)O)cc4)c(=O)c23)C1 (centres undefined),"inconclusive: 16.4 µM [activator, single point]"
12,COCCCN1C(=O)c2[nH]nc(-c3ccccc3O)c2C1c1cccc(Cl)c1 (centres undefined),"inconclusive: 3.55 µM [inhibitor, full curve, poor fit]"
13,O=C1CC(C(=O)Nc2ccccc2)S/C(=N\NC(=O)c2ccccc2Cl)N1 (centres undefined),inactive
14,COc1ccccc1/C=C/C(=C1/C(=O)N(c2ccccc2)N=C1C)c1ccc(C)cc1,"inconclusive: 20.6 µM [activator, partial curve, poor fit]"
15,COc1cccc(NC(=O)C(=S)NC2CCCCC2)c1,"inconclusive: 2.59 µM [activator, full curve]"
16,O=C(CCS(=O)(=O)c1cccs1)Nc1ccc(C(=O)NCc2cccs2)cc1,active: 16.4 µM
17,CC(C)(C)NC(=O)NC(=O)CSc1cccc(C(F)(F)F)c1,inactive
18,CC(=O)Nc1ccc(S(=O)(=O)Nc2ccc(N3CCOCC3)cc2)cc1,inactive
19,Cc1ccc(Cn2nnc3c(=O)[nH]c(C4CCCN(S(=O)(=O)c5ccccc5F)C4)nc32)cc1 (centres undefined),"inconclusive: 11.6 µM [inhibitor, partial curve]"
20,O=C(CN1C(=O)/C(=C\c2ccco2)SC1=S)Nc1ccc(O)cc1C(=O)O,inactive
21,O=C(CCSc1ccc(Cl)cc1)NC1CCCCC1,"inconclusive: 25.9 µM [activator, single point]"
22,Nc1ccc(O)c2c(=O)cc(-c3ccccc3Cl)oc12,"inconclusive: 2.06 µM [activator, partial curve]"
23,CCn1c(-c2cc(-c3ccccc3)sc2N)n[nH]c1=S,"inconclusive: 29.1 µM [inhibitor, single point]"
24,COC(CNC(=O)c1cc(-c2ccncc2)nc2ccc(S(=O)(=O)N3CCOCC3)cc12)OC,inactive
25,Cc1ccc(C)c(NC(=S)NCc2ccc3[nH]c4c(c3c2)CCCC4)c1,"inconclusive: 32.6 µM [inhibitor, single point]"

row,Compound,Potency
1,Cc1ccc(C)c(OCCCCn2cnc3ccccc3c2=O)c1,"inconclusive: 23.1 µM [inhibitor, single point]"
2,O=S(=O)(NCc1ccccc1)[C@@H]1CC2C=CC1C2 (some centres undefined),inactive
3,CC(C)(C)OC(=O)N[C@@H](/C=C/c1ccccc1)C(=O)OC(C)(C)C,inactive
4,COc1ccccc1NC(=O)CN1CCN(c2ccc(Cl)cc2)CC1,inactive
5,Clc1ccc(OCc2noc(-c3ccsc3)n2)c(Cl)c1,"inconclusive: 13 µM [activator, partial curve]"
6,CNc1snc(C)c1C(=O)OCC(=O)NCc1ccccc1OC,"inconclusive: 18.3 µM [inhibitor, partial curve]"
7,CCOc1ccc(C(=O)NCC(=O)N2CCN(Cc3ccccc3)CC2)cc1,inactive
8,C[C@@H]1C=CC(=O)O[C@@H]1c1ccc(C(F)(F)F)cc1,"inconclusive: 20.6 µM [inhibitor, single point]"
9,C=CCNC(=O)C1CC1(c1ccccc1)c1ccccc1 (centres undefined),inactive
10,COc1ccc(-c2cc(C)nc3nc(N)nn23)cc1,"inconclusive: 23.1 µM [activator, partial curve, poor fit]"
11,COc1ccccc1CNC(=S)NC1CCCC1,inactive
12,CCOC(=O)N1CCN(CC(=O)Nc2ccc([N+](=O)[O-])cc2C(=O)Nc2ccccc2F)CC1,active: 7.31 µM
13,C=CCC(Nc1ccccc1)c1cccc(OC)c1OC (centres undefined),"inconclusive: 20.6 µM [activator, partial curve, poor fit]"
14,COc1ccccc1CNC(=O)CCCC(=O)n1ncc2cc(C)ccc21,inactive
15,COc1ccc(CNc2ncnc3sccc23)cc1,active: 1.83 µM
16,COC(=O)/C(C#N)=C/c1c(N2CCN(c3cccc(Cl)c3)CC2)nc2c(C)cccn2c1=O,"inconclusive: 29.1 µM [inhibitor, single point]"
17,COc1ccc(N2CCN(CCC3Oc4cc([N+](=O)[O-])ccc4NC3=O)CC2)cc1 (centres undefined),"inconclusive: 14.6 µM [inhibitor, partial curve, poor fit]"
18,CCC(C)c1ccc(OCC(=O)NNC(=O)C2CCCCC2)cc1 (centres undefined),"inconclusive: 29.1 µM [activator, single point]"
19,Cc1ccc(-n2ncc3c(=O)n(CC(N)=O)cnc32)cc1C,"inconclusive: 23.1 µM [activator, single point]"
20,COc1ccc(N(CC(=O)NCc2ccco2)S(=O)(=O)c2ccc(C)cc2)cc1OC,inactive
21,Cc1ccccc1CCN(C(=O)c1csnn1)C(C(=O)NC1CCCC1)c1ccco1 (centres undefined),inactive
22,CCCCCOc1ccc(C(=O)CCC(=O)N2CCCC2)cc1,inactive
23,Cc1ccn2cc(C(=O)N3CCCC(Nc4ccc(F)cc4)C3)nc2c1 (centres undefined),"inconclusive: 20.6 µM [activator, partial curve, poor fit]"
24,Cc1ccsc1/C=C1\SC(N2CCOCC2)=NC1=O,"inconclusive: 14.6 µM [activator, partial curve]"
25,O=C(CCC(=O)c1cccs1)OCC(=O)c1ccc(F)cc1,inactive

row,Compound,Potency
1,COc1ccc(C(C2C(=O)CC(C)(C)CC2=O)C2C(=O)CC(C)(C)CC2=O)cc1CO,inactive
2,c1ccc(COc2ccc(OCCCNC3CCCC3)cc2)cc1,"inconclusive: 16.4 µM [activator, partial curve]"
3,CCOC(=O)C(=CNc1cc(C)nn1-c1ccc(C)cc1)C(=O)OCC,active: 13 µM
4,Cc1cccc(/C=N/NC(=O)c2ccc3c(c2)OCCO3)c1O,"inconclusive: 0.58 µM [activator, full curve]"
5,CNC(=S)N(CCc1c(C)[nH]c2ccc(OC)cc12)Cc1cc(OC)c(OC)c(OC)c1,"inconclusive: 23.1 µM [inhibitor, partial curve, poor fit]"
6,CC(=O)c1c(C)[nH]c(C(=O)Nc2cc(C)cc(C)c2)c1C,"inconclusive: 14.6 µM [activator, partial curve]"
7,CC(C)n1cnc2cc(NCc3nc4ccccc4n3C)ccc21,"inconclusive: 5.17 µM [activator, partial curve]"
8,CC(C)C(NC(=O)c1ccccc1)c1nnc(SCC(=O)NC2CCCC2)n1C (centres undefined),inactive
9,CC1=C[C@H](C)[C@H](c2c(F)cccc2Cl)CC1=O,inactive
10,CC(C)(C)NC(=O)C1CCN(C(=O)c2ccco2)CC1,inactive
11,O=C1CCCC2=C1C(c1ccccc1)C1C(=O)c3ccccc3C1=N2 (centres undefined),inactive
12,COc1ccc(-c2ccc(C(=O)O)o2)c([N+](=O)[O-])c1,inactive
13,COc1cc(OC)cc(-c2c(C#Cc3ccsc3)c3cc(-c4cccc5[nH]cc(C=O)c45)ccc3n2C)c1,"inconclusive: 7.3 µM [inhibitor, partial curve]"
14,COc1cc(S(=O)(=O)N2CCOCC2)ccc1NC(=O)COC(=O)c1cc(OC)c(OC)c(OC)c1,"inconclusive: 25.9 µM [inhibitor, single point]"
15,Cc1ccc(C(=O)Nc2nnc(C)s2)o1,"inconclusive: 16.4 µM [activator, single point]"
16,O=C(NC(=S)Nc1ccc(N2CCOCC2)cc1)c1cncc(Br)c1,"inconclusive: 23.1 µM [inhibitor, partial curve]"
17,CC(=O)Oc1ccc(C(=O)Nc2cccc3c2CCCC3)cc1,inactive
18,O=C(c1cnn(Cc2ccccc2)c1)N1CCN(S(=O)(=O)/C=C/c2ccccc2)CC1,"inconclusive: 29.1 µM [inhibitor, single point]"
19,CCC1=NN2C(=N)/C(=C\c3cccn3-c3ccc(OC)cc3)C(=O)N=C2S1,"inconclusive: 29.1 µM [inhibitor, single point]"
20,O=c1c2ccccc2ncn1-c1cccc(Cl)c1,"inconclusive: 23.1 µM [activator, partial curve, poor fit]"
21,CCC(C(=O)NCCCN1CC(C)CC(C)C1)n1ncn2c(cc3occc32)c1=O (centres undefined),inactive
22,CC(=O)c1nn(-c2ccc(Cl)cc2)c(=O)[nH]c1=O,inactive
23,CC1(C)CC(=O)C2=C(C1)OC1=C(C(=O)CC(C)(C)C1)C2c1cc([N+](=O)[O-])cc([N+](=O)[O-])c1O,"inconclusive: 23.1 µM [inhibitor, single point]"
24,O=C(Nc1ccccc1Cl)c1ccc(Cl)cc1Cl,"inconclusive: 20.6 µM [activator, partial curve]"

# Some of the entries so far, bar-delimited:
row | Compound | Potency
1 | COc1ccc(C(C2C(=O)CC(C)(C)CC2=O)C2C(=O)CC(C)(C)CC2=O)cc1CO | inactive
2 | c1ccc(COc2ccc(OCCCNC3CCCC3)cc2)cc1 | inconclusive: 16.4 µM [activator, partial curve]
3 | CCOC(=O)C(=CNc1cc(C)nn1-c1ccc(C)cc1)C(=O)OCC | active: 13 µM
4 | Cc1cccc(/C=N/NC(=O)c2ccc3c(c2)OCCO3)c1O | inconclusive: 0.58 µM [activator, full curve]
5 | CNC(=S)N(CCc1c(C)[nH]c2ccc(OC)cc12)Cc1cc(OC)c(OC)c(OC)c1 | inconclusive: 23.1 µM [inhibitor, partial curve, poor fit]
7 | CC(C)n1cnc2cc(NCc3nc4ccccc4n3C)ccc21 | inconclusive: 5.17 µM [activator, partial curve]
9 | CC1=C[C@H](C)[C@H](c2c(F)cccc2Cl)CC1=O | inactive
10 | CC(C)(C)NC(=O)C1CCN(C(=O)c2ccco2)CC1 | inactive
12 | COc1ccc(-c2ccc(C(=O)O)o2)c([N+](=O)[O-])c1 | inactive
13 | COc1cc(OC)cc(-c2c(C#Cc3ccsc3)c3cc(-c4cccc5[nH]cc(C=O)c45)ccc3n2C)c1 | inconclusive: 7.3 µM [inhibitor, partial curve]
16 | O=C(NC(=S)Nc1ccc(N2CCOCC2)cc1)c1cncc(Br)c1 | inconclusive: 23.1 µM [inhibitor, partial curve]
18 | O=C(c1cnn(Cc2ccccc2)c1)N1CCN(S(=O)(=O)/C=C/c2ccccc2)CC1 | inconclusive: 29.1 µM [inhibitor, single point]
20 | O=c1c2ccccc2ncn1-c1cccc(Cl)c1 | inconclusive: 23.1 µM [activator, partial curve, poor fit]
22 | CC(=O)c1nn(-c2ccc(Cl)cc2)c(=O)[nH]c1=O | inactive
23 | CC1(C)CC(=O)C2=C(C1)OC1=C(C(=O)CC(C)(C)C1)C2c1cc([N+](=O)[O-])cc([N+](=O)[O-])c1O | inconclusive: 23.1 µM [inhibitor, single point]
